Data taken from the supplement of paper PMC6411743.
± gives the standard deviation of the averaged measurements. This is a selection; strong and weak results do not stand in their true shares.

Chains of the proteins cited; added tags and fusions are not shown. Lines headed by an entry give the natural chain unless they say otherwise; changes in a name come on top.
UniProt P14314: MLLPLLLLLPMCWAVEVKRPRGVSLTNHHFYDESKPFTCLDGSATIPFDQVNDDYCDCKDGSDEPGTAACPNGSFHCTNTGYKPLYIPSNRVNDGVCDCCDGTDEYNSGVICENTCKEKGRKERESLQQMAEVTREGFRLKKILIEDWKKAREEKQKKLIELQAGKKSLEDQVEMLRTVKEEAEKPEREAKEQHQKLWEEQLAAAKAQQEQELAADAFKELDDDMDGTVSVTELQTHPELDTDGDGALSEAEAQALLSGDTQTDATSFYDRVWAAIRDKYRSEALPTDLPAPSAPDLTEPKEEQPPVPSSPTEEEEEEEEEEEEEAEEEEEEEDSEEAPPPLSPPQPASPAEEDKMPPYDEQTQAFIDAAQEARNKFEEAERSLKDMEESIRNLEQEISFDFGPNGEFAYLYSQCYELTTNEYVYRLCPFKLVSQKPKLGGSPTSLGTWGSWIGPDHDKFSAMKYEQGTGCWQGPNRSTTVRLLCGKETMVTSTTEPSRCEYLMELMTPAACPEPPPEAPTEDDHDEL
UniProt O15014: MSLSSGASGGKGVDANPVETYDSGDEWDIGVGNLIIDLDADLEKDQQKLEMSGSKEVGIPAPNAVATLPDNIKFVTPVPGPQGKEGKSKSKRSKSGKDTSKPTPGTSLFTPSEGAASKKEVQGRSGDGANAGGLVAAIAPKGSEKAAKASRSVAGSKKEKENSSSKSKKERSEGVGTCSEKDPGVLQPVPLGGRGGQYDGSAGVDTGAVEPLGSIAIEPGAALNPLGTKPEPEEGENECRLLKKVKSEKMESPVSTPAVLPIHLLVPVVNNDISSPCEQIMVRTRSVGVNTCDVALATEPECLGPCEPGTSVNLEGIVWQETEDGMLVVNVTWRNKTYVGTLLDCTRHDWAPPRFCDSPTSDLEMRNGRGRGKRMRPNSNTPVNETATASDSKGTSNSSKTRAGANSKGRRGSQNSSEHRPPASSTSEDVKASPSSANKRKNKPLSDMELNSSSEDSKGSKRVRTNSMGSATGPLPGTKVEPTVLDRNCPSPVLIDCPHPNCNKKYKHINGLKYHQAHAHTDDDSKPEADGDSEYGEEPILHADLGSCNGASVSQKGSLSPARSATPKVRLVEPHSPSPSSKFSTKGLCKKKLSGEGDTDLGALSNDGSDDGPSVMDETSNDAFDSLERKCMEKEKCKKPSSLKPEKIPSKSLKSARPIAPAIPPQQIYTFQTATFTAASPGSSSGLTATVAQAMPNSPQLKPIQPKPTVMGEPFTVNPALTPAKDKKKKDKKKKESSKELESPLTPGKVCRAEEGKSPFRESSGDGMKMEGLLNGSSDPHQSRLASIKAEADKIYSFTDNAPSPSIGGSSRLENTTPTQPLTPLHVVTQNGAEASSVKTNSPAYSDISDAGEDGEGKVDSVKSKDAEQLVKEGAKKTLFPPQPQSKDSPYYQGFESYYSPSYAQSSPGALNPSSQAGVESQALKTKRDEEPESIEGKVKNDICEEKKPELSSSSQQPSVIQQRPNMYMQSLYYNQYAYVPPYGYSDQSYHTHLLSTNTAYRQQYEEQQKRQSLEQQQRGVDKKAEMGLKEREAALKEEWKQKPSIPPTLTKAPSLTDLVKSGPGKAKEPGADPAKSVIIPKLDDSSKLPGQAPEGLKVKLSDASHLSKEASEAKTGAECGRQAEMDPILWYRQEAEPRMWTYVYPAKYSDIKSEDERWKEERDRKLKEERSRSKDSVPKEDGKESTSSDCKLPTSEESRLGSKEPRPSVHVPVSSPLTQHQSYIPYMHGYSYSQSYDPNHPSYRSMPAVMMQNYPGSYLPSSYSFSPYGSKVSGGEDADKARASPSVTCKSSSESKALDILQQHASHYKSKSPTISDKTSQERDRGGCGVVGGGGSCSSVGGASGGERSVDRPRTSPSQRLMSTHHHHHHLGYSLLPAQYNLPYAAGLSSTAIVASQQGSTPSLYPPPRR
UniProt Q8WVC6: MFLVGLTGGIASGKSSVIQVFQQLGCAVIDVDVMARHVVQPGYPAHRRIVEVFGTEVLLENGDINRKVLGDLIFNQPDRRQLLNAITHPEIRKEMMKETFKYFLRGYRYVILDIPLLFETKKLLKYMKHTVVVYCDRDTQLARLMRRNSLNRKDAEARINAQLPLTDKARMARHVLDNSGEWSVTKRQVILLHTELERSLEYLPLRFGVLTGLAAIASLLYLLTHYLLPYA
UniProt O15400: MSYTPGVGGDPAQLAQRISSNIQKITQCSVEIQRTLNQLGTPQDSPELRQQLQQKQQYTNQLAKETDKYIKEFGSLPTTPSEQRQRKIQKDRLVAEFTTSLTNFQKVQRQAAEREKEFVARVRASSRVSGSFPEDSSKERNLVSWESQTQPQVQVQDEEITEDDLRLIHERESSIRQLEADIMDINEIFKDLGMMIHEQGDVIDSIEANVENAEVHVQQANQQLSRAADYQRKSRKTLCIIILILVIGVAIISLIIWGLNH
UniProt O00487, whole entry: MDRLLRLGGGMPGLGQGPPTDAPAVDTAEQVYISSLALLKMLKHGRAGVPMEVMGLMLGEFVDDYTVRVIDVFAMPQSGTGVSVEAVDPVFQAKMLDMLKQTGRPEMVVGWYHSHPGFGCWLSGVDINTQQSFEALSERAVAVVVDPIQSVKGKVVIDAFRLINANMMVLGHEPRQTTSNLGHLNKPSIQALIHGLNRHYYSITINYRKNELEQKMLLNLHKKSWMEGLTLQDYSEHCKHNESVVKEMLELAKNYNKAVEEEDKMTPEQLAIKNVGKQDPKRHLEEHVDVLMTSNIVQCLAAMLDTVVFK
UniProt O15226: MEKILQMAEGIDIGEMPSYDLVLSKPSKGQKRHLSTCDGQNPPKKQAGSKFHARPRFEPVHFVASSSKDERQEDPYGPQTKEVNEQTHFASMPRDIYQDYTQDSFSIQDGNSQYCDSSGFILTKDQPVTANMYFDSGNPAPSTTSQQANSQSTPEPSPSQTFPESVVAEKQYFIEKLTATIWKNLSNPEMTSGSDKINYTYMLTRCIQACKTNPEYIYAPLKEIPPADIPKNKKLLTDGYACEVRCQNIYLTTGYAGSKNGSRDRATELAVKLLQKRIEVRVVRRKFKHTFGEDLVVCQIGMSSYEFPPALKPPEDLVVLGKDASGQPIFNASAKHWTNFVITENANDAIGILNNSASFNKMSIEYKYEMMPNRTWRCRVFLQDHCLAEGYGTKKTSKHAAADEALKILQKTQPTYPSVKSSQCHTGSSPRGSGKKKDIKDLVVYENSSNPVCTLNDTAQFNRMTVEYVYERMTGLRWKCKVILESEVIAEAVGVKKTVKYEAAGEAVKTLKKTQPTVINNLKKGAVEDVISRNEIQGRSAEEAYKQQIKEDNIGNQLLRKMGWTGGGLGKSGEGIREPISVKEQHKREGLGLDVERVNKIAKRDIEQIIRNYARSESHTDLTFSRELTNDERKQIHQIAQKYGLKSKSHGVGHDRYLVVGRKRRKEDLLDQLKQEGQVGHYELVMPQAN
UniProt O43290: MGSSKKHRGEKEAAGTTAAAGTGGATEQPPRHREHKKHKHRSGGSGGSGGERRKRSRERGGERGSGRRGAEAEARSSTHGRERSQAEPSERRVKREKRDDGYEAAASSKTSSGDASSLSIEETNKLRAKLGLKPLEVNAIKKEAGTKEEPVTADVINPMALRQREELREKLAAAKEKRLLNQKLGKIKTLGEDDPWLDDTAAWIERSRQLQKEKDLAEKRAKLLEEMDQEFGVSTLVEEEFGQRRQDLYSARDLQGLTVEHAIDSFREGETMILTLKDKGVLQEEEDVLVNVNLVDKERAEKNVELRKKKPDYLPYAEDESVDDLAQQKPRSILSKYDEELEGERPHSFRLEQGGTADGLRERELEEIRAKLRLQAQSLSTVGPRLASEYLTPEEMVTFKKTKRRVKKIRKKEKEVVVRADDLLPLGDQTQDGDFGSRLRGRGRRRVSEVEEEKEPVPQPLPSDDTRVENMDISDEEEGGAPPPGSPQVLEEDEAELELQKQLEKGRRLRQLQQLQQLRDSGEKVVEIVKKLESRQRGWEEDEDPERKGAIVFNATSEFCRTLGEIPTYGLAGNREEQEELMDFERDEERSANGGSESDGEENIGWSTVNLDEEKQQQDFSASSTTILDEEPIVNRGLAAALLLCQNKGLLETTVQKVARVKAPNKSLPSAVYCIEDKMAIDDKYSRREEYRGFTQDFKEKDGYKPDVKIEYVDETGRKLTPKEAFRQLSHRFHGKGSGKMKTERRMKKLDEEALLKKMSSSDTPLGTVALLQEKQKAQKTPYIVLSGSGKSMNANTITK
UniProt O43678, whole entry: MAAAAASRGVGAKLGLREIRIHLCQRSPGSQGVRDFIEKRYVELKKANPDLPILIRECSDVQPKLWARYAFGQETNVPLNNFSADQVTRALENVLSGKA
UniProt O14737: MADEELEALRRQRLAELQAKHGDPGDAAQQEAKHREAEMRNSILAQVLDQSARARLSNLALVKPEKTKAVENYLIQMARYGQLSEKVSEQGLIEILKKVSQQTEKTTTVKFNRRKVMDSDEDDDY
UniProt O43592: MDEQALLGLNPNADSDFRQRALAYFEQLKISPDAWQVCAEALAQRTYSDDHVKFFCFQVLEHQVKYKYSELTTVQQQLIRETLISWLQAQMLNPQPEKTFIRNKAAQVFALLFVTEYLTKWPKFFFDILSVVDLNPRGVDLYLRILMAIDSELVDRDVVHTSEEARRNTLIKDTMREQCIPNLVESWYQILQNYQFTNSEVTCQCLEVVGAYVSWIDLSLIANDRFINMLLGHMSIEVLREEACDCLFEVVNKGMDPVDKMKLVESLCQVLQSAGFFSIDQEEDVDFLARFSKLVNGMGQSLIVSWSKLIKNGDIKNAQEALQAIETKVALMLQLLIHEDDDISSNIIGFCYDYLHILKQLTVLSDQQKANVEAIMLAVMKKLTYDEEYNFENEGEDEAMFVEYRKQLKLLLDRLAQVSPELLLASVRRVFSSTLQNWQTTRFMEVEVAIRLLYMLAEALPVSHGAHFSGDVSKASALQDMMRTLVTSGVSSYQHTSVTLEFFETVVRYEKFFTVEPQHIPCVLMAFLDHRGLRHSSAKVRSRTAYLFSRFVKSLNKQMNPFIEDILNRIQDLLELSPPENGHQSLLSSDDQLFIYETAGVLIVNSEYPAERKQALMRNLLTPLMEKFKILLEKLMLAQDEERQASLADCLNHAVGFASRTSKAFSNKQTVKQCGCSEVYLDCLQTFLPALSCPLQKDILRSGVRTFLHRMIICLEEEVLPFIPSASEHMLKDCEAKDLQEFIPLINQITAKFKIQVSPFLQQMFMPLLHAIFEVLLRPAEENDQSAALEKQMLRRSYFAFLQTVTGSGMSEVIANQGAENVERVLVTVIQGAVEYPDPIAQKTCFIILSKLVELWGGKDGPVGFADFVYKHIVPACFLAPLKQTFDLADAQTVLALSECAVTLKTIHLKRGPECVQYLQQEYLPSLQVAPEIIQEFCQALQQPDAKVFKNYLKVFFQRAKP
UniProt Q9UBQ5, whole entry: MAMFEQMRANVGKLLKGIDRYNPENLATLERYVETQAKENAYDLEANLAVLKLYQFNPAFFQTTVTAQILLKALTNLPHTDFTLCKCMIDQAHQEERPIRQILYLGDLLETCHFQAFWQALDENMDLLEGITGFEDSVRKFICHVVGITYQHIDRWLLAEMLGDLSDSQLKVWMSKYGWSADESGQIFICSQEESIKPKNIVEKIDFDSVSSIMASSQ
UniProt P27797, whole entry: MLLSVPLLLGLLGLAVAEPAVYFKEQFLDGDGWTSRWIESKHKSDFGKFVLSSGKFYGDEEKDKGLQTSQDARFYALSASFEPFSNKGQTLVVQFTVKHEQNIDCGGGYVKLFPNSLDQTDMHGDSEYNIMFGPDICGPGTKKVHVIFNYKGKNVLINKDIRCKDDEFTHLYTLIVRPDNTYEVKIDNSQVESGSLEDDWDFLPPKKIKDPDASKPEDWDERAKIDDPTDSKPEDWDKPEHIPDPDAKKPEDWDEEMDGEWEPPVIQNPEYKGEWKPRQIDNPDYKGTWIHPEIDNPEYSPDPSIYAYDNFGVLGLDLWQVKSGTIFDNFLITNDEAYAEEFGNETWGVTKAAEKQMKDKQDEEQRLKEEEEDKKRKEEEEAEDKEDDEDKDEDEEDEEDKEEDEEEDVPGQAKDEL
UniProt Q15831: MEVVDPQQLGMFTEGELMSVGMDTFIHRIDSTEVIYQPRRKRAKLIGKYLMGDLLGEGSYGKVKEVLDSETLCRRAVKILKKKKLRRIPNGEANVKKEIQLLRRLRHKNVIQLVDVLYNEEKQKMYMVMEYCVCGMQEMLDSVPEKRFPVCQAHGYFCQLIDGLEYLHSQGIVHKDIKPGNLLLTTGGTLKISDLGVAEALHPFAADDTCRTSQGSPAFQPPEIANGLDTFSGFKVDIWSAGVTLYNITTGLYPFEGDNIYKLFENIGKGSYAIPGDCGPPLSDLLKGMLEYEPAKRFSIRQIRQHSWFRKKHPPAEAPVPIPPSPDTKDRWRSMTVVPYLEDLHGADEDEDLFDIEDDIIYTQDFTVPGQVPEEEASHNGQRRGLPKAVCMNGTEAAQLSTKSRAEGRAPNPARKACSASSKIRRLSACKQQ

Compound: Nc1ncnc2c1ncn2[C@@H]1O[C@H](COP(=O)(O)OP(=O)(O)NP(=O)(O)O)[C@@H](O)[C@H]1O [adenylyl imidodiphosphate]
Test: NP40-soluble protein abundance relative to vehicle (solubility fold change) (ratio); higher = more soluble protein in presence of AMP-PNP
Outline: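 Jurkat crude lysate prepared with a Dounce homogeniser was treated at eight concentrations spanning 0.1 to 10 mM, 10 min at room temperature then 3 min at 37 °C. Solubilisation with 0.8% NP40 and benzonase and ultracentrifugation preceded TMT labelling of the supernatant for LC-MS/MS. Fold change against the detergent-processed vehicle was determined per replicate from vsn-normalised intensities, across three independent experiments.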

Target | NP40-soluble protein abundance (concentration: 1mM) | NP40-soluble protein abundance (concentration: 2mM) | NP40-soluble protein abundance (concentration: 4mM) | NP40-soluble protein abundance (concentration: 6mM) | NP40-soluble protein abundance (concentration: 8mM) | NP40-soluble protein abundance (concentration: 10mM)
ANKRD28 (UniProt O15084) | 0.991 ± 0.028 | 0.932 ± 0.11 | 0.997 ± 0.031 | 0.937 ± 0.043 | 0.939 ± 0.032 | 0.908 ± 0.044
ARPC5 (UniProt O15511) | 1.05 ± 0.043 | 1.11 ± 0.12 | 1.02 ± 0.052 | 1.08 ± 0.013 | 1.01 ± 0.028 | 1.054 ± 0.01
K7ELL7 and related entries (UniProt P14314) | 1.021 ± 0.0066 | 1.11 ± 0.15 | 1 ± 0.035 | 1.02 ± 0.022 | 1 ± 0.04 | 0.997 ± 0.039
PHGDH (UniProt O43175) | 0.969 ± 0.066 | 0.911 ± 0.086 | 0.89 ± 0.083 | 0.894 ± 0.12 | 0.963 ± 0.049 | 0.932 ± 0.048
UniProt O15014 and related entries | 1.03 ± 0.059 | 1.1 ± 0.049 | 1.07 ± 0.042 | 1.02 ± 0.063 | 1 ± 0.056 | 1.04 ± 0.058
K7ESP4 and related entries (UniProt Q8WVC6) | 1.05 ± 0.019 | 1.04 ± 0.079 | 1.07 ± 0.026 | 1.08 ± 0.012 | 1.06 ± 0.04 | 1.1 ± 0.04
UniProt O43148 and related entries | 0.996 ± 0.013 | 1.01 ± 0.011 | 0.992 ± 0.017 | 0.992 ± 0.027 | 0.985 ± 0.029 | 1 ± 0.033
UniProt O14974 and related entries | 1.04 ± 0.023 | 1.11 ± 0.07 | 1.06 ± 0.019 | 1.06 ± 0.062 | 1.03 ± 0.028 | 1.07 ± 0.033
SYNJ2 (UniProt O15056) | 0.979 ± 0.036 | 0.98 ± 0.03 | 0.989 ± 0.014 | 0.949 ± 0.016 | 0.963 ± 0.027 | 0.957 ± 0.029
UniProt O43760 and related entries | 0.977 ± 0.05 | 0.976 ± 0.05 | 0.972 ± 0.053 | 0.983 ± 0.014 | 0.979 ± 0.052 | 0.97 ± 0.035
UniProt O43684 and related entries | 1.01 ± 0.021 | 0.966 ± 0.041 | 1.05 ± 0.045 | 1.11 ± 0.029 | 1.16 ± 0.044 | 1.15 ± 0.058
UniProt O15400 and related entries | 1.01 ± 0.059 | 1.04 ± 0.1 | 0.993 ± 0.06 | 0.992 ± 0.035 | 0.976 ± 0.039 | 0.957 ± 0.038
UniProt O00487 | 0.931 ± 0.027 | 0.881 ± 0.087 | 0.903 ± 0.053 | 0.874 ± 0.055 | 0.887 ± 0.079 | 0.873 ± 0.092
K7ELC7 and related entries (UniProt P61353) | 1.02 ± 0.033 | 0.979 ± 0.044 | 0.966 ± 0.11 | 0.924 ± 0.086 | 0.907 ± 0.094 | 0.953 ± 0.14
UniProt O15226 and related entries | 1.025 ± 0.0057 | 1.02 ± 0.045 | 1 ± 0.032 | 0.988 ± 0.033 | 0.9706 ± 0.0089 | 1.023 ± 0.0077
SART1 (UniProt O43290) | 1.07 ± 0.048 | 1.12 ± 0.054 | 1.11 ± 0.034 | 1.22 ± 0.089 | 1.26 ± 0.067 | 1.36 ± 0.081
NDUFA2 (UniProt O43678) | 0.926 ± 0.014 | 0.948 ± 0.033 | 0.933 ± 0.036 | 0.906 ± 0.033 | 0.903 ± 0.026 | 0.87 ± 0.031
PDCD5 (UniProt O14737) | 0.997 ± 0.055 | 1.02 ± 0.1 | 0.967 ± 0.04 | 0.951 ± 0.11 | 0.908 ± 0.067 | 0.969 ± 0.04
TRIM38 (UniProt O00635) | 1.08 ± 0.022 | 1.08 ± 0.06 | 1.07 ± 0.04 | 1.04 ± 0.019 | 1.03 ± 0.02 | 1.066 ± 0.01
K7EJP7 and related entries (UniProt Q7Z4V5) | 1.04 ± 0.034 | 1.1 ± 0.12 | 1.07 ± 0.012 | 1.12 ± 0.053 | 1.12 ± 0.066 | 1.19 ± 0.032
XPOT (UniProt O43592) | 0.982 ± 0.03 | 0.966 ± 0.03 | 1.01 ± 0.022 | 1 ± 0.024 | 1.01 ± 0.049 | 1.02 ± 0.029
K7ERF1 and related entries (UniProt Q9UBQ5) | 1 ± 0.018 | 1.02 ± 0.045 | 1.02 ± 0.063 | 1.15 ± 0.066 | 1.15 ± 0.085 | 1.26 ± 0.091
K7EJH8 and related entries (UniProt O43707) | 1.03 ± 0.02 | 1.01 ± 0.03 | 0.98 ± 0.042 | 0.965 ± 0.019 | 0.935 ± 0.035 | 0.942 ± 0.03
NDUFAB1 (UniProt O14561) | 0.9506 ± 0.0093 | 1.01 ± 0.1 | 0.957 ± 0.018 | 0.907 ± 0.051 | 0.885 ± 0.022 | 0.912 ± 0.037
SCAMP2 (UniProt O15127) | 1 ± 0.059 | 1 ± 0.1 | 0.987 ± 0.057 | 1.02 ± 0.02 | 0.982 ± 0.069 | 1 ± 0.036
K7EJB9 and related entries (UniProt P27797) | 1.04 ± 0.025 | 1.1 ± 0.11 | 1.01 ± 0.053 | 1.02 ± 0.011 | 0.978 ± 0.029 | 1.02 ± 0.079
K7EP59 and related entries (UniProt Q15831) | 1.0443 ± 0.00038 | 0.999 ± 0.029 | 1.04 ± 0.033 | 1.01 ± 0.044 | 1.015 ± 0.0066 | 1.03 ± 0.028
SETD1A (UniProt O15047) | 0.978 ± 0.039 | 1 ± 0.022 | 1 ± 0.031 | 0.968 ± 0.019 | 0.949 ± 0.014 | 0.973 ± 0.03
COPE (UniProt O14579) | 1.05 ± 0.061 | 1.05 ± 0.068 | 1.06 ± 0.019 | 1.03 ± 0.021 | 1.06 ± 0.021 | 1.08 ± 0.063
UniProt O15117 and related entries | 1.06 ± 0.065 | 1.11 ± 0.11 | 1.05 ± 0.029 | 1.12 ± 0.047 | 1.09 ± 0.034 | 1.14 ± 0.033

Part of the list above, set out differently:
TRIM38 (UniProt O00635)
  NP40-soluble protein abundance (concentration: 1mM): 1.08 ± 0.022
  NP40-soluble protein abundance (concentration: 2mM): 1.08 ± 0.06
  NP40-soluble protein abundance (concentration: 4mM): 1.07 ± 0.04
  NP40-soluble protein abundance (concentration: 6mM): 1.04 ± 0.019
  NP40-soluble protein abundance (concentration: 8mM): 1.03 ± 0.02
  NP40-soluble protein abundance (concentration: 10mM): 1.066 ± 0.01
K7EJP7 and related entries (UniProt Q7Z4V5)
  NP40-soluble protein abundance (concentration: 1mM): 1.04 ± 0.034
  NP40-soluble protein abundance (concentration: 2mM): 1.1 ± 0.12
  NP40-soluble protein abundance (concentration: 4mM): 1.07 ± 0.012
  NP40-soluble protein abundance (concentration: 6mM): 1.12 ± 0.053
  NP40-soluble protein abundance (concentration: 8mM): 1.12 ± 0.066
  NP40-soluble protein abundance (concentration: 10mM): 1.19 ± 0.032
